Screen size: about 340,000 compounds; about 170 (0.05%) were called active. Inconclusive means that the source gave no clear call. Such entries were picked first, then a sample of the others. The call rests on the fitted dose curve; in most records, active means well fitted inhibition curve with a large enough effect in the signal ratio, with a control signal flat (not every such curve was filed as active); inconclusive means small, poorly fitted or top-dose-only effect, or effect the other way, or a change in a side signal; inactive means flat fitted curve, though single readings scatter; the % refers to the signal ratio. Where the call is inconclusive, the potency comes from a doubtful curve fit.
Experiment: qHTS Assay to Find Inhibitors of Chronic Active B-Cell Receptor Signaling;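 on activity change, negative = inhibition: plate controls were basal doxycycline-induced cells for no effect and cells given 10 µM MG132 for full effect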
Conditions: ABC-DLBCL IkBa-CBG/CBR reporter, luminescence ratio (green luciferase fused to IkBa over red control in TMD8 lymphoma cells), 4 h; activity change, negative = inhibition: at 46.1 µM (top of the series) unless noted
Excerpt: NIH Molecular Libraries Probe Production Network [MLPCN] NIH Chemical Genomics Center [NCGC] MLPCN Grant: 1 R03 DA031086-01A1 PI Name: Dr. R. Eric Davis NCGC Assay Overview: Diffuse large B-cell lymphoma (DLBCL) is the most common category of non-Hodgkin lymphoma, with ~20,000 new cases per year in the United States. DLBCL should be regarded as a collection of different neoplasms. Microarray gene expression analysis has defined two principal types of DLBCL, named for their similarity to normal B cell stages or activation states: a germinal center B-cell (GCB) type, and an activated B-cell (ABC) type. In ABC-DLBCL, a constitutive high-level activity of the NF-kappaB family of transcription factors has been observed (1) and NF-kappaB target genes are more highly expressed in ABC primary tumors than in GCB tumors. Functional studies have shown a constitutive high-level activity of the IkappaB (inhibitor of kappa-B) kinase (IKK) complex. […] Further analysis of DLBCL primary tumors for NF-kappaB target gene expression imply that although CARD11 is required for constitutive IKK activity in all ABC-DLBCL lines, mutations in CARD11 may be the root cause of IKK activation only in lines or tumors with such mutations. In other words, CARD11 mutations may explain NF-kappaB activation in only 10% of ABC-DLBCL cases. […] This process has been termed 'chronic active BCR signaling' (CABS). The goal of this screen is to find small-molecule inhibitors of the CABS pathway found in ABC-DLBCL lines using a cell-based assay that measures IkappaBalpa stability, which has already been extensively validated in the OCI-Ly3 line (PubChem AID:445; REF: 4). […] The assay uses green (CBG68) and red (CBR) emitting beetle luciferases [Chroma-GloTM developed by Promega Corp.] where the green luciferase is fused to IkappaBalpha and the red luciferase is present in its native state. Both luciferase genes are stably present in the TMD8 human ABC DLBCL cell line, but their expression is under the control of tetracycline-inducible promoters. Following the addition of doxycycline to induce expression of the luciferases, the green luminescence in control cultures rises only slowly because the CBG fusion partner IkappaBalpha is targeted by IKK activity for rapid degradation. In contrast, green luminescence rises rapidly in the presence of proteasome inhibitors or IKK inhibitors. The rise in red luminescence of CBR is not affected by proteasome or IKK inhibitors, and serves as normalization for cell number and nonspecific effects. Compounds were screened as a concentration-titration series that ranged from 46 uM to 3 nM.
NCGC Assay Protocol Summary: Cells were seeded in 1536-well plates at 5000 cells/4uL in IMDM medium containing 0.5% FBS, w/o phenol red, 1% penicillin/streptomycin. Then, 23 nL of compounds or DMSO were delivered to each well using a pin tool. One uL 20ng/ml doxycycline was then dispensed into white solid 1536-well plates and the plates were incubated at 37C/5% C02 in a cell incubator for 4 hrs. Then 4 uL luminescent substrate mix (in-house prepared: 150 mM Tris-Cl, pH 7.6, 3 mM MgCl2, 1% Triton X-100, 5 mM DTT, 0.2 mM CoA, 0.15 mM ATP, 5 mM D-luciferin, final concentrations) was added to each well. The plate was incubated at r.t. for 10-15 min. The plates were measured on a ViewLux plate reader for green luminescence (540/20 nm filter) and red luminescence (618/8 nm filter). The green and red luminescent signals were corrected for red and green luminescence filter overlap using previously determined filter calibration constants (determined using the procedure outlined in the Promega Technical Manual; REF 4). The %Activity was determined from the ratio of corrected green/red luminescent values. MG132 were used as control. […] Red luminescent %Activity was normalized to the difference between red luminesence in basal cells (0%Activity) and zero luminescence (-100% Activity). […]
For `Cc1ccc(/C=C/C2=NN(Cc3ccccc3)C(=O)CC2)cc1`, the activity change, negative = inhibition was inconclusive: 14%. For `Cc1nn(C)c(C)c1CN(C)C(=O)c1cnn2c1NC(c1ccccc1)CC2C(F)(F)F` (stereo not drawn), the activity change, negative = inhibition was inconclusive: -1.09%. For `Cc1nc2c(-c3ccc(Cl)cc3)c(C)[nH]n2c(=O)c1Cc1ccccc1`, the Potency was inconclusive: 22.4 µM [falling, single point]. In the case of `O=C(N/N=C/c1ccncc1)c1cc2ccccc2o1`, the Potency is reported as inconclusive: 25.9 µM [falling, single point]. In the case of `Cc1ccc(C(=O)Nc2sc3c(c2C(=O)O)CCCC3)o1`, the activity change, negative = inhibition is reported as inconclusive: 326%. For `COc1ccc2oc(C(=O)Nc3nccs3)c(C)c2c1`, the Potency was inconclusive: 3.26 µM [falling, partial curve]. For `COc1ccc(NC(=O)C2C3CCC4C(CCC32)C4(Cl)Cl)cc1` (stereo not drawn), the activity change, negative = inhibition was inconclusive: 4.68%. In the case of `COC(=O)C(O)(NC(=O)OCc1ccccc1)C(F)(F)F` (stereo not drawn), the activity change, negative = inhibition is reported as inconclusive: 0.731%. For `O=C(CSc1ccccn1)Nc1nc2c(ccc3ccccc32)s1`, the activity change, negative = inhibition was inconclusive: 14.9%. For `CCC1CCCCN1CCCCOc1cccc(Cl)c1` (stereo not drawn), the activity change, negative = inhibition was inconclusive: -10.4%. In the case of `CC(=O)c1ccc(-c2ccc(C(=O)NC3CCCCCC3)o2)cc1`, the activity change, negative = inhibition is reported as inconclusive: -11%. For `COc1ccc(C2CC(c3cccs3)=NN2C(=O)c2ccc(Br)o2)cc1` (stereo not drawn), the activity change, negative = inhibition was “inactive”. For `Cc1cc(-c2ccc(C(=O)O)s2)cnc1N`, the Potency was inconclusive: 7.08 µM [rising, partial curve]. For `CC(C)Oc1c(Br)cc(Br)cc1/C=N/NC(N)=S`, the Potency was inconclusive: 23.1 µM [cytotoxic, single point]. In the case of `O=C(CSc1nnc(-c2cccnc2)o1)Nc1nccs1`, the Potency is reported as inconclusive: 20.6 µM [falling, single point]. In the case of `CN(C)S(=O)(=O)N(CC(=O)N(Cc1ccccc1)Cc1ccccc1)c1ccccc1`, the activity change, negative = inhibition is reported as inconclusive: 10.1%. For `N#Cc1c(NC(=O)c2cccc(S(=O)(=O)Nc3ccc(C(=O)O)cc3)c2)sc2c1CCCC2`, the activity change, negative = inhibition was inconclusive: 0.488%. With `COc1cc(/C=C2\SC(=O)N(c3ccc(O)cc3)C2=O)cc(OC)c1OC` the activity change, negative = inhibition was inconclusive: -13.1%. For `Cc1ccccc1-c1cc(C(=O)O)nn1CC1CC(c2cccc([N+](=O)[O-])c2)=NO1` (stereo not drawn), the activity change, negative = inhibition was inconclusive: -0.953%. In the case of `COc1ccccc1NS(=O)(=O)c1cc(NC(=O)c2cc(F)c(F)c(F)c2F)ccc1N1CCOCC1`, the activity change, negative = inhibition is reported as inconclusive: -6.59%. With `CCOc1ccc(NC(=O)c2ccc3c(SCC(=O)O)c4c(nc3c2)CCCC4)cc1` the activity change, negative = inhibition was “inactive”. For `O=S(=O)(Cc1cc(Sc2ccccc2)nc(-c2ccccc2)n1)c1ccccc1`, the Potency was inconclusive: 3.26 µM [rising, partial curve, poor fit]. With `O=C(O)c1ccc(CN2C(=O)CSC2=S)cc1` the activity change, negative = inhibition was “inactive”. With `COc1ccccc1NS(=O)(=O)c1ccc(C)c(C(=O)NCc2cccnc2)c1` the activity change, negative = inhibition was inconclusive: -0.914%. For `O=S1(=O)CCOC[C@H](CC2CCCCC2)N1Cc1cccc(F)c1`, the activity change, negative = inhibition was inconclusive: -2.54%. For `Cc1c(C(=S)NC(=O)C2CC2)c(=O)n(-c2ccccc2)n1C`, the activity change, negative = inhibition was inconclusive: 7.01%. With `Clc1ccc(N2CCOCC2)nn1` the Potency was inconclusive: 0.562 µM [falling, full curve, poor fit]. In the case of `COc1cccc(NC(=O)CSc2nc3ccccc3cc2Cc2ccccc2)c1`, the activity change, negative = inhibition is reported as inconclusive: 6.11%. With `Cn1c(N)c(C(=O)COC(=O)c2ccc(Cl)c(S(=O)(=O)N3CCCCC3)c2)c(=O)n(C)c1=O` the activity change, negative = inhibition was inconclusive: 7.22%. With `CCOc1ccc(S(=O)(=O)N2CCN(S(=O)(=O)c3ccc(OCC)cc3)C(C)C2)cc1` (stereo not drawn) the activity change, negative = inhibition was inconclusive: 8.13%. In the case of `S=C(N/N=C/c1cccc2ccccc12)Nc1cccc(Cl)c1`, the activity change, negative = inhibition is reported as “inactive”. With `Cc1ccccc1NC(=O)c1ccc(CN2CCC(Cc3ccccc3)CC2)cc1` the Potency was inconclusive: 1.12 µM [falling, partial curve, poor fit]. In the case of `COc1ccc(OC)c(/C=C2\SC(=S)N(Cc3cccnc3)C2=O)c1`, the activity change, negative = inhibition is reported as “inactive”. In the case of `CSc1ccccc1OCc1cc(C(=O)N2CCc3c(Cl)cccc3C2)no1`, the activity change, negative = inhibition is reported as “inactive”. With `Cn1cnnc1SCc1ccc(C(=O)N=Nc2c(O)n(Cc3ccc(Cl)cc3)c3ccccc23)cc1` the activity change, negative = inhibition was “inactive”. With `CCOc1ccccc1C1CC(=O)Nc2cc(OC)c(OC)c(OC)c21` (stereo not drawn) the activity change, negative = inhibition was inconclusive: 0.377%. With `Cc1cc(C)nc(Nc2n[nH]c(-c3ccccc3N)n2)n1` the Potency was inconclusive: 35.5 µM [rising, single point]. For `CC(C)(C)c1nc(N2CCN(C(=O)c3ccco3)CC2)c2nnn(Cc3ccccc3)c2n1`, the activity change, negative = inhibition was “inactive”. For `c1ccc(CCc2nc(-c3cccnc3)no2)cc1`, the activity change, negative = inhibition was inconclusive: -13.4%. In the case of `CN(C)C(=O)c1cccn(Cc2ccc(C(F)(F)F)cc2)c1=O`, the activity change, negative = inhibition is reported as inconclusive: -0.555%. In the case of `COC(=O)c1sc(NC(=O)C2CCCO2)c(C(=O)OC)c1C` (stereo not drawn), the activity change, negative = inhibition is reported as “inactive”. With `O=C(CN1C(=O)COc2ccc(S(=O)(=O)N3CCCCCC3)cc21)NCc1ccc(Cl)cc1` the activity change, negative = inhibition was inconclusive: -0.198%. For `O=C(Cn1cnc2c(cnn2-c2ccccc2)c1=O)Nc1cc(S(=O)(=O)N2CCOCC2)ccc1Cl`, the activity change, negative = inhibition was “inactive”. In the case of `O=C(NCCCN1CCN(c2ccccc2F)CC1)Nc1ccc(F)cc1`, the activity change, negative = inhibition is reported as “inactive”. In the case of `CCSc1nsc(NC(=O)Nc2ccc(F)cc2F)n1`, the activity change, negative = inhibition is reported as inconclusive: 411%. With `CC1CCCN(C(=O)CSc2nnc(-c3ccc(S(=O)(=O)N4CCOCC4)cc3)n2C)C1` (stereo not drawn) the activity change, negative = inhibition was inconclusive: -0.266%. In the case of `N#Cc1c(NC(=O)CSc2n[nH]c(N)n2)oc(-c2ccccc2)c1-c1ccccc1`, the Potency is reported as inconclusive: 23.1 µM [rising, single point]. For `N#CC1=C(N)Oc2cc(O)ccc2C1c1ccccc1` (stereo not drawn), the activity change, negative = inhibition was “inactive”. In the case of `Cc1cc(-c2nn(-c3ccccc3)cc2/C=C2\SC(N)=NC2=O)ccc1OC(C)C`, the activity change, negative = inhibition is reported as “inactive”. For `O=C(CN1C(=O)NC2(CCCCCC2)C1=O)c1ccc(F)cc1`, the activity change, negative = inhibition was “inactive”. In the case of `CC(=O)CC(c1ccccc1)S(=O)(=O)c1ccc([N+](=O)[O-])cc1` (stereo not drawn), the activity change, negative = inhibition is reported as “inactive”. In the case of `CC1(C)O[C@@H]2[C@H](O1)[C@@H](COS(=O)(=O)O)O[C@H]2n1cnc2c(N)ncnc21`, the activity change, negative = inhibition is reported as inconclusive: 3.74%. For `CCN(CC(=O)NCc1cccs1)CC(=O)Nc1c(Cl)ccc(C)c1Cl`, the activity change, negative = inhibition was inconclusive: 2.52%.
Potency means the concentration at half of the fitted maximal effect.
